Results as given in PMC9933776.
Results are given in words; binding and its absence hold for the method and conditions named. Binding seen in cells or lysates may run through a third protein. Some results given as binding are weak or reduced against the parent protein; the word gives no strength.

Protein sequences, listed by entry. Tags and fused reporters are not part of them. Residues count along the entry.
UniProt Q9QUK6, residues 26-835: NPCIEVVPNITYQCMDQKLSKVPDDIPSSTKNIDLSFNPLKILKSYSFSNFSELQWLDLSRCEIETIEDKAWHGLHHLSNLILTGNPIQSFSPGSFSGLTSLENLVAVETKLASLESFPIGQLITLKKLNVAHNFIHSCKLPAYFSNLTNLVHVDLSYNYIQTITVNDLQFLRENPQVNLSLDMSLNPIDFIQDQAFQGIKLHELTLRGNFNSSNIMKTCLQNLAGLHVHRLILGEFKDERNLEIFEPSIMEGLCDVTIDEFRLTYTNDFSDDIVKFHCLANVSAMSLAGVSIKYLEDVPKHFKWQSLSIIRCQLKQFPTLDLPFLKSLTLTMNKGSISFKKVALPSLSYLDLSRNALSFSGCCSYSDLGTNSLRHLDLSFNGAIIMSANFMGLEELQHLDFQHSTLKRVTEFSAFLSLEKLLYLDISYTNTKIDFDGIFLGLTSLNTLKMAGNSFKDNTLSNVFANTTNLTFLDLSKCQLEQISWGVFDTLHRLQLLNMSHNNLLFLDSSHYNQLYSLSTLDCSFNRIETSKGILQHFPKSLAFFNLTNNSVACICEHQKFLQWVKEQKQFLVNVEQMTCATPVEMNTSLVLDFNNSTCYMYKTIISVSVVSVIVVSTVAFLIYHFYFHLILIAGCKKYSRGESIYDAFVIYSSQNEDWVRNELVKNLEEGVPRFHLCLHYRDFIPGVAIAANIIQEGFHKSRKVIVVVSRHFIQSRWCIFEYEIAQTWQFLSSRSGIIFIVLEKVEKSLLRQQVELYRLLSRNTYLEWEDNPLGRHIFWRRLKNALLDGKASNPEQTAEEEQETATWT

Target: T1, Caveolin-1 (mouse (endogenous in alveolar macrophages of C57BL/6 mice)) (UniProt P49817)
T1 sequence: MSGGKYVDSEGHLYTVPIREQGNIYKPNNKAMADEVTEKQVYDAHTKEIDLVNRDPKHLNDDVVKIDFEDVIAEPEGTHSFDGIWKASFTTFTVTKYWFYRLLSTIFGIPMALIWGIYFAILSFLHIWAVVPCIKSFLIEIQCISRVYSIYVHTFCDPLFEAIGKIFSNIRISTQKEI
Experiment: co-IP; lysate (100 µg protein, IP-lysis buffer) of WT mouse alveolar macrophages treated with elution buffer or OMV for 3 h; 5 µg Cav-1 antibody, 4°C overnight, Pierce Crosslink Magnetic IP/Co-IP Kit; immunoblot with anti-TLR4 antibody

binding: binds
Substance: Toll-like receptor 4 (from UniProt Q9QUK6 26-835)
